# The supplement of paper PMC10849652
# Chains of the proteins cited; added tags and fusions are not shown. Lines headed by an entry give the natural chain unless they say otherwise; changes in a name come on top.
# UniProt Q6UUV9: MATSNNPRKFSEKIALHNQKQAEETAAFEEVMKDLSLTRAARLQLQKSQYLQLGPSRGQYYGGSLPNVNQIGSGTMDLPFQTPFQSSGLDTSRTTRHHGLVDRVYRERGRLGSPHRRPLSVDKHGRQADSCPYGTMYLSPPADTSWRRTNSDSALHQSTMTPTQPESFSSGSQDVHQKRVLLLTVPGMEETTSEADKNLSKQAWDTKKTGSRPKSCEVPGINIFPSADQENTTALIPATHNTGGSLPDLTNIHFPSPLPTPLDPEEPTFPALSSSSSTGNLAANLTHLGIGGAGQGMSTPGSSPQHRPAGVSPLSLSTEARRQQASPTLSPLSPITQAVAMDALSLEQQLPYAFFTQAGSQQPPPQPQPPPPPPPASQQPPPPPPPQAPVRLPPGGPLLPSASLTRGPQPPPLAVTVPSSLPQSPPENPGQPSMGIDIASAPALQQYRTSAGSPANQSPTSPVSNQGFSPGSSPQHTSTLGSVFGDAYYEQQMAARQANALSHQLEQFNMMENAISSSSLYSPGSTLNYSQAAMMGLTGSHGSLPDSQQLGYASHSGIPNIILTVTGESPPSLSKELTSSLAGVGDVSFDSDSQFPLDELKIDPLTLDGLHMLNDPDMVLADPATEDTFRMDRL
# UniProt Q17RY0: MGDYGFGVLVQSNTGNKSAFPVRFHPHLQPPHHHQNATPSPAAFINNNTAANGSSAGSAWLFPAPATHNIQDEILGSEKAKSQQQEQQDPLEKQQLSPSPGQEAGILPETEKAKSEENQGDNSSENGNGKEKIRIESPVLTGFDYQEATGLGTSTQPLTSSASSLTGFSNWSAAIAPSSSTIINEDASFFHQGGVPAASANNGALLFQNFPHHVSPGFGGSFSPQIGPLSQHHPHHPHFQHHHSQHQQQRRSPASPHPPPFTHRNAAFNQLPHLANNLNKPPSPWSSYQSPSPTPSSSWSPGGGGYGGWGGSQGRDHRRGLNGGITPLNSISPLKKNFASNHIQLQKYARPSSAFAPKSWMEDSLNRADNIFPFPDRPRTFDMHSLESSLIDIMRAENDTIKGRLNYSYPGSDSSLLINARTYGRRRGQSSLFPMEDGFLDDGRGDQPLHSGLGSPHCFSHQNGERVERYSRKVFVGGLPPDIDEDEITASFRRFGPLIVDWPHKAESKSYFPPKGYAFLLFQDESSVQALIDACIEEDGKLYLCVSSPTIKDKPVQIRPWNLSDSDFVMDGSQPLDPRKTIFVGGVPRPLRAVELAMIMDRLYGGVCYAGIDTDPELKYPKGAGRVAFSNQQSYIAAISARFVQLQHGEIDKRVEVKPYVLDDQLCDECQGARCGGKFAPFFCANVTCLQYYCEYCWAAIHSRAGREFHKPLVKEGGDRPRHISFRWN
# UniProt Q53ET0: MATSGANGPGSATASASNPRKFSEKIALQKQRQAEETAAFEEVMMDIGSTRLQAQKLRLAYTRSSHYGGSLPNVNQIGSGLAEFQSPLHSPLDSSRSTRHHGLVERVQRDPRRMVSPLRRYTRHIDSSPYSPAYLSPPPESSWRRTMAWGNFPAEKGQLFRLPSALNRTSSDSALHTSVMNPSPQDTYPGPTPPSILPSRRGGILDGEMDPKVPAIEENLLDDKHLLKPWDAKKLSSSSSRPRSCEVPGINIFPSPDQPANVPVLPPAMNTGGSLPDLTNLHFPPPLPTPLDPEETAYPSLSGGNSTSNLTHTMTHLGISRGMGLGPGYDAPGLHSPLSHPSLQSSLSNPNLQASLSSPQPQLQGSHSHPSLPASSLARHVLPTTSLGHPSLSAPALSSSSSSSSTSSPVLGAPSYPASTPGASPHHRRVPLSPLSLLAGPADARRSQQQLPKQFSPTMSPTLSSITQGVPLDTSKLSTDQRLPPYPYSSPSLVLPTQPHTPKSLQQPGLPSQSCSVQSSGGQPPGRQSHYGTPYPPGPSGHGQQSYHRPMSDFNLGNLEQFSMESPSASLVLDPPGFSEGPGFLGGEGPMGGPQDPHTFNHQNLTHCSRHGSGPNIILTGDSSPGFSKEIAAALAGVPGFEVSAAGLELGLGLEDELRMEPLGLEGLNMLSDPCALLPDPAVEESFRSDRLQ
# UniProt Q9UNS2: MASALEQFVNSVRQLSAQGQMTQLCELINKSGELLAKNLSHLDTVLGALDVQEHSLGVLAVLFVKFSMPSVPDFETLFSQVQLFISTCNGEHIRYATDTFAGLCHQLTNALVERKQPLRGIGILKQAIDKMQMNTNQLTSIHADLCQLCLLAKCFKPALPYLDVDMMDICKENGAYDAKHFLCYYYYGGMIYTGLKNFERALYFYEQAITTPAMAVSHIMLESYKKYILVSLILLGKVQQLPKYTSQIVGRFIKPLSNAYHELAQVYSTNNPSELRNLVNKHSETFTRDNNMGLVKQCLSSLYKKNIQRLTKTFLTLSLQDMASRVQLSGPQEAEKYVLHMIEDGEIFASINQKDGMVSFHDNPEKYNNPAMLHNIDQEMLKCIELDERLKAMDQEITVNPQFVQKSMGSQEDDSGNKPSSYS
# UniProt O75575: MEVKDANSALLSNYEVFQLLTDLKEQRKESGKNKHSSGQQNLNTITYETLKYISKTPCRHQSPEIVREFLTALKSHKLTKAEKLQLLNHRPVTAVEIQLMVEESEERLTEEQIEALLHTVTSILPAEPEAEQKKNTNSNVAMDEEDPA
# UniProt Q14061: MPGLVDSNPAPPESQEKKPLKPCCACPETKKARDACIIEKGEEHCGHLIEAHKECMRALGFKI
# UniProt P49747: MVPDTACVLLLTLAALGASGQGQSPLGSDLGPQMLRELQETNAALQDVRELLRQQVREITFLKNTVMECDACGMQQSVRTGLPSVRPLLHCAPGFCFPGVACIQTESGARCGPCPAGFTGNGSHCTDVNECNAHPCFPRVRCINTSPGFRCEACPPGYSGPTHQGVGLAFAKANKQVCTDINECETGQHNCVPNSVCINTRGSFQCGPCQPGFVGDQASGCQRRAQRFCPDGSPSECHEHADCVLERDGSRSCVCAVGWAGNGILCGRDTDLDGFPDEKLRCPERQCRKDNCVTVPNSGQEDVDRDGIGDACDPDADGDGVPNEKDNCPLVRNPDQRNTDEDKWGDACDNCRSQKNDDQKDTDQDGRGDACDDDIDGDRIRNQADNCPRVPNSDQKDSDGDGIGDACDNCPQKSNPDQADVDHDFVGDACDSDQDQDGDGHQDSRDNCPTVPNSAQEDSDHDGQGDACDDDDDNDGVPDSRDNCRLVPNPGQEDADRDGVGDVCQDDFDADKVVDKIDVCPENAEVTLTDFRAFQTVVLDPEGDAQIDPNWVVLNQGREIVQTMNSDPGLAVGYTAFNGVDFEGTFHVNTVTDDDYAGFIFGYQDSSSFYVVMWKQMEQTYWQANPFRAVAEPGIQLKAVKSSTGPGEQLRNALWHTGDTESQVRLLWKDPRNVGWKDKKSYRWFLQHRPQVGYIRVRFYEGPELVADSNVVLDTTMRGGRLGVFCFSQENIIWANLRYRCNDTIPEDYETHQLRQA
# UniProt Q6UUV7: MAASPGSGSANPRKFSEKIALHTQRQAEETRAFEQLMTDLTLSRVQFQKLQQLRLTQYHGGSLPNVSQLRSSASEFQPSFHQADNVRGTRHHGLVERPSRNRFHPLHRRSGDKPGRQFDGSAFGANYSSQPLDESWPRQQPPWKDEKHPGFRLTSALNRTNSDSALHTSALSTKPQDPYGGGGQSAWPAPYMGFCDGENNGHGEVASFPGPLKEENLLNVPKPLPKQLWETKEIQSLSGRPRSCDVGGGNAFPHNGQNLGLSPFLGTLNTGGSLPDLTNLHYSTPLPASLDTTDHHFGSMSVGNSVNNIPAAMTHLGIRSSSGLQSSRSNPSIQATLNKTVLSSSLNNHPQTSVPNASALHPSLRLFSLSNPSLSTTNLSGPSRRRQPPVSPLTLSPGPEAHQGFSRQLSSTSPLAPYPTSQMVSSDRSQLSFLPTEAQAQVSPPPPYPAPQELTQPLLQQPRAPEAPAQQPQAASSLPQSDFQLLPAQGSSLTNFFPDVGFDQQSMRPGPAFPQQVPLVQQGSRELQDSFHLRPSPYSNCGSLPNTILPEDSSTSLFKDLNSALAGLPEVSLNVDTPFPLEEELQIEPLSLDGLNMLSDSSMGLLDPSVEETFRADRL
# UniProt Q9Y6M4: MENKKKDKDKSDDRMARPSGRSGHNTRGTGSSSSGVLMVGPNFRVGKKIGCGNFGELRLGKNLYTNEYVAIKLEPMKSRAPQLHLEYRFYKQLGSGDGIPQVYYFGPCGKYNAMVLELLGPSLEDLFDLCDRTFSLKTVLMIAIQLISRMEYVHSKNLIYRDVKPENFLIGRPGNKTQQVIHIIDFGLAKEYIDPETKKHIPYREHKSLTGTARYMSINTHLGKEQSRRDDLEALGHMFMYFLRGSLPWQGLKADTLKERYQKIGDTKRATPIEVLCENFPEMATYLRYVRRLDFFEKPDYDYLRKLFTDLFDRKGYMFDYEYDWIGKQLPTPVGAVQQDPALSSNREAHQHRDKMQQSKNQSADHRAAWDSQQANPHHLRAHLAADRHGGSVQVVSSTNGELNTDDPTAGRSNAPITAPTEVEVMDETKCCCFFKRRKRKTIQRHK
# UniProt P24311, whole entry, looked up: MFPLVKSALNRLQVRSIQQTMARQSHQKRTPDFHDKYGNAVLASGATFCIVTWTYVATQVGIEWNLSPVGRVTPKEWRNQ
# UniProt Q9H0A8, whole entry, looked up: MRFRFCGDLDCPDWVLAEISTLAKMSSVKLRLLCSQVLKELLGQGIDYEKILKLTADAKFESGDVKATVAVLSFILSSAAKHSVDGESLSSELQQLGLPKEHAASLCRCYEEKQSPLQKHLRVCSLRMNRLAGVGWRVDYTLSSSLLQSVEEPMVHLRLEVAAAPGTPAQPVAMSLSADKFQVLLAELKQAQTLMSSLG
# UniProt Q8N668, whole entry, looked up: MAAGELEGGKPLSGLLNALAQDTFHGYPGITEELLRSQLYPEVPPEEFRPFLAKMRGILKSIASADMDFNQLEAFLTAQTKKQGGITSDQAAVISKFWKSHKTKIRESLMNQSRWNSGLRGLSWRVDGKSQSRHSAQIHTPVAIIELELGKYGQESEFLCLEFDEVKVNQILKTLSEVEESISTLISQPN
# UniProt Q10570: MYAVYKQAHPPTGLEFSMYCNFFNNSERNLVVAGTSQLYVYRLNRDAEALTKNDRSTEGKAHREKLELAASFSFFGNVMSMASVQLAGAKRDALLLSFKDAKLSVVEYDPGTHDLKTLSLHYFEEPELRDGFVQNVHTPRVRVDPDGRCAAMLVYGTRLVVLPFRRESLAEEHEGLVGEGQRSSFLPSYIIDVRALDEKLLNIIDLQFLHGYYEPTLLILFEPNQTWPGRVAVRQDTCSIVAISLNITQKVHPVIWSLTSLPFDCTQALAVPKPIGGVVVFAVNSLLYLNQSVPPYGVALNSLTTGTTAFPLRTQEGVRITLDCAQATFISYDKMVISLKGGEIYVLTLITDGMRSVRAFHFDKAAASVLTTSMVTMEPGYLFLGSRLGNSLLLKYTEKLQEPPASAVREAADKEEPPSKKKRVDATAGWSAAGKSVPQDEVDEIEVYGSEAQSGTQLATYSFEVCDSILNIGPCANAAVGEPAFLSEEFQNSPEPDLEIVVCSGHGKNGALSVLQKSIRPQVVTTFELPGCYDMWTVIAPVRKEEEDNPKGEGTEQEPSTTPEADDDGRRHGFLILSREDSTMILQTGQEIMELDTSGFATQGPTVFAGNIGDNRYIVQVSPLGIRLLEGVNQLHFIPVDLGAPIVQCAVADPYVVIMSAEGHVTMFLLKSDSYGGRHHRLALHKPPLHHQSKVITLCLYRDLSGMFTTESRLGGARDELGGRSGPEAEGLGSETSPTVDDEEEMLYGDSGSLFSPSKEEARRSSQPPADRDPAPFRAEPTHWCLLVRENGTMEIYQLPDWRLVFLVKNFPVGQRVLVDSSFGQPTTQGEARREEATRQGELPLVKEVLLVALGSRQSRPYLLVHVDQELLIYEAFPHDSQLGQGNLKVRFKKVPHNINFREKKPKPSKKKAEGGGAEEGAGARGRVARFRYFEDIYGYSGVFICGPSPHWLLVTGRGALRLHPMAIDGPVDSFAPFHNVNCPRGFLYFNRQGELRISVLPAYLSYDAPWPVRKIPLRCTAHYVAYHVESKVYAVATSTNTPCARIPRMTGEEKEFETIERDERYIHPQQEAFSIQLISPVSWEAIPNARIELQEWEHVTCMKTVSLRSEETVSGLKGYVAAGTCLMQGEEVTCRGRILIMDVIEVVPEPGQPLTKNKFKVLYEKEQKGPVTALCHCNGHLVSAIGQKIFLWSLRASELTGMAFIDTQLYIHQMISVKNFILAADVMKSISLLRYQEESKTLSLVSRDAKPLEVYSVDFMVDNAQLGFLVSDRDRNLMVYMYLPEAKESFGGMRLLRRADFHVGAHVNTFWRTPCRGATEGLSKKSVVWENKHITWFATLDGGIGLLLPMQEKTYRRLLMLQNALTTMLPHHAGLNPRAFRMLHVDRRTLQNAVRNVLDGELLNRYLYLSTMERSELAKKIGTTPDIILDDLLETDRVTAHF
# UniProt P10606, whole entry, looked up: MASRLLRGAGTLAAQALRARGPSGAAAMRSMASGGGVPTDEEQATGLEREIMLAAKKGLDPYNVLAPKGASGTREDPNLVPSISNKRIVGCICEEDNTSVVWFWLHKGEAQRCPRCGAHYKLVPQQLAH
# The list shows a part of the results.
# Key:
# Test in all cases: log2 fold change, soluble protein after heating vs DMSO (PISA); higher = thermal stabilisation; K562 cells, 10 uM, 30 min; active = over 0.2 and 3.5 SD of the protein, either way, in both replicates (recomputed)
# [1] = compound: CC1=C(C=C(C=C1)NC(=O)C2=CC(=CC=C2)C(C)(C)C#N)NC3=CC4=C(C=C3)N=CN(C4=O)C
# Summary of the method: (§1)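 K562 cells at 2×10^6 cells/mL were given 10 μM compound for 30 min. Aliquots then went through 3 min of heating across 48°C-58°C, were pooled, and were extracted in PBS with 0.5% NP-40 at 4°C, and the supernatant after 21,000xg for 90 min was quantified by TMTpro 16plex LC-MS/MS with channel sums equalised. Thermal stability relative to control samples, from duplicates, is given as log2 fold change.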
# [2] = compound: CC1=C(C=C(C=C1)NC(=O)C2=CC(=CC=C2)N(C)C)NC(=O)C3=CC=C(C=C3)O
# Summary of the method: as §1
# [3] = compound: CC1=CC=C(C=C1)SC2=C3C=C(SC3=CN=C2)C(=O)N
# Summary of the method: as §1
# [4] = compound: CC1=NC(=CC=C1)C2=C(N=C(N2)C(C)(C)C)C3=CC4=NC=CN=C4C=C3
# Summary of the method: as §1
# Nexturastat A = compound: CCCCN(Cc1ccc(C(=O)NO)cc1)C(=O)Nc1ccccc1 [Nexturastat A]
# Summary of the method: as §1
# vemurafenib = compound: CCCS(=O)(=O)Nc1ccc(F)c(C(=O)c2c[nH]c3ncc(-c4ccc(Cl)cc4)cc23)c1F [vemurafenib]
# Summary of the method: as §1
# [5] = compound: CCCS(=O)(=O)Nc1ccc(F)c(C(=O)c2c[nH]c3ncc(Cl)cc23)c1F
# Summary of the method: as §1
# givinostat = compound: CCN(CC)Cc1ccc2cc(COC(=O)Nc3ccc(C(=O)NO)cc3)ccc2c1 [givinostat]
# Summary of the method: as §1
# barasertib = compound: CCN(CCCOc1ccc2c(Nc3cc(CC(=O)Nc4cccc(F)c4)[nH]n3)ncnc2c1)CCOP(=O)(O)O [barasertib]
# Summary of the method: as §1
# volasertib = compound: CC[C@@H]1C(=O)N(C)c2cnc(Nc3ccc(C(=O)N[C@H]4CC[C@H](N5CCN(CC6CC6)CC5)CC4)cc3OC)nc2N1C(C)C [volasertib]
# Summary of the method: as §1
# epoxomicin = compound: CC[C@H](C)[C@@H](C(=O)N[C@@H]([C@@H](C)O)C(=O)N[C@@H](CC(C)C)C(=O)[C@]1(CO1)C)NC(=O)[C@H]([C@@H](C)CC)N(C)C(=O)C [epoxomicin]
# Summary of the method: as §1
# [6] = compound: CCn1cc(-c2ccnc3[nH]c(-c4cccc(CN(C)C)c4)cc23)c(-c2ccc(NC(=O)N(C)C)cc2)n1
# Summary of the method: as §1
# [7] = compound: CN(C)CC(=O)Nc1ccc2[nH]c(=O)c3ccccc3c2c1
# Summary of the method: as §1
# [8] = compound: CN1C2=C(C3=C1C(=O)N(N=C3)CC4=CC(=CC=C4)N)SC(=C2)S(=O)C
# Summary of the method: as §1
# [9] = compound: CN1CCC(CNc2ccc3ncc(-c4cccc(OC(F)(F)F)c4)n3n2)CC1
# Summary of the method: as §1
# [10] = compound: CCCc1cc(C)[nH]c(=O)c1CNC(=O)c1cc(-c2ccnc(N3CCN(C)CC3)c2)cc2c1cnn2C(C)C
# Summary of the method: as §1
# [11] = compound: CC[C@@H]1C(=O)N(C)c2cnc(Nc3ccc(C(=O)NC4CCN(C)CC4)cc3OC)nc2N1C1CCCC1
# Summary of the method: as §1
# rosiglitazone = compound: CN(CCOC1=CC=C(C=C1)C[C@H]2C(=O)NC(=O)S2)C3=CC=CC=N3 (racemic) [rosiglitazone]
# Summary of the method: as §1
# [12] = compound: CC[C@H](C)N1C=C(C2=C(C=C(C=C21)C3=CN=C(C=C3)N4CCNCC4)C(=O)NCC5=C(C=C(NC5=O)C)C)C
# Summary of the method: as §1
# [13] = compound: CCn1c(C(=O)N(C2CC2)C2CC2)cc2c3c(ncn3C)c(Nc3cc(C)n(C)n3)nc21
# Summary of the method: as §1
Target,log2 fold change [1],log2 fold change [2],log2 fold change [3],log2 fold change [4],log2 fold change (Nexturastat A),log2 fold change (vemurafenib),log2 fold change [5],log2 fold change (givinostat),log2 fold change (barasertib),log2 fold change (volasertib),log2 fold change (epoxomicin),log2 fold change [6],log2 fold change [7],log2 fold change [8],log2 fold change [9],log2 fold change [10],log2 fold change [11],log2 fold change (rosiglitazone),log2 fold change [12],log2 fold change [13]
CRTC1 isoform 2 (UniProt Q6UUV9),inactive: -0.001,inactive: 0.195,inactive: -0.086,inactive: 0.073,inactive: 0.24,inactive: -0.035,inactive: 0.051,inactive: 0.158,inactive: 0.015,inactive: 0.211,inactive: -0.062,inactive: 0.034,inactive: -0.069,inactive: -0.153,inactive: 0.101,–,–,–,–,–
CPEB4 (UniProt Q17RY0),inactive: -0.158,inactive: -0.009,inactive: 0.022,inactive: 0.03,–,inactive: 0.034,inactive: 0.053,–,inactive: -0.047,inactive: -0.092,–,inactive: 0.095,inactive: 0,inactive: 0.077,inactive: -0.051,inactive: 0.036,inactive: 0.081,inactive: 0.032,–,–
CRTC2 (UniProt Q53ET0),inactive: 0.055,inactive: 0.055,inactive: -0.051,inactive: 0.017,inactive: -0.03,inactive: 0.039,inactive: 0.031,inactive: 0.181,inactive: 0.062,inactive: 0.016,inactive: 0.098,–,inactive: -0.009,–,–,inactive: 0.103,inactive: 0.014,–,inactive: 0.061,–
CPSF3 (UniProt Q9UKF6),inactive: -0.014,inactive: 0.005,inactive: -0.006,inactive: -0.012,inactive: -0.085,inactive: 0.017,inactive: 0.063,inactive: -0.03,inactive: 0.022,active: -0.252,inactive: -0.013,inactive: -0.008,inactive: 0.033,inactive: -0.032,inactive: 0.003,inactive: -0.001,inactive: -0.105,–,inactive: 0.043,–
COPS3 isoform 2 (UniProt Q9UNS2),inactive: -0.154,inactive: 0.03,inactive: 0.066,inactive: -0.128,inactive: -0.113,inactive: -0.303,inactive: -0.14,–,inactive: 0.065,inactive: 0.031,inactive: 0.059,inactive: -0.075,inactive: -0.165,–,inactive: -0.124,inactive: -0.162,inactive: 0.079,–,inactive: 0.001,–
COX14 (UniProt Q96I36),inactive: 0.081,–,inactive: -0.05,inactive: 0.171,inactive: -0.174,–,inactive: 0.037,inactive: -0.046,inactive: -0.277,inactive: -0.043,inactive: 0.375,inactive: 0.055,–,–,inactive: 0.126,–,inactive: -0.028,inactive: -0.209,inactive: -0.048,inactive: 0.044
CRCP (UniProt O75575),inactive: -0.06,–,inactive: 0.046,inactive: 0.049,inactive: 0.13,–,inactive: 0.085,–,inactive: 0.031,inactive: -0.142,inactive: 0.267,inactive: -0.005,–,inactive: -0.036,inactive: 0.089,inactive: 0,inactive: 0.123,inactive: -0.105,inactive: 0.185,–
COX17 (UniProt Q14061),inactive: -0.015,inactive: -0.358,–,inactive: 0.024,inactive: 0,inactive: 0.029,–,inactive: 0.029,–,–,inactive: 0.504,inactive: -0.154,inactive: -0.051,inactive: -0.146,inactive: 0.055,inactive: 0.025,–,–,inactive: 0.044,–
COMP (UniProt P49747),inactive: 0.133,inactive: 0.402,inactive: 0.089,inactive: 0.074,–,–,inactive: -0.14,inactive: -0.075,inactive: 0.033,inactive: -0.049,–,inactive: 0.046,–,inactive: 0.278,inactive: -0.089,inactive: -0.296,inactive: 0.132,inactive: 0.061,–,inactive: -0.003
COX7C (UniProt P15954),inactive: -0.057,inactive: -0.187,inactive: -0.01,inactive: 0.088,inactive: 0.027,inactive: -0.018,inactive: -0.085,inactive: -0.271,inactive: 0.061,inactive: -0.163,inactive: 0.203,inactive: 0.095,inactive: -0.058,inactive: -0.026,inactive: -0.052,inactive: 0.143,inactive: 0.035,–,inactive: -0.114,–
CRTC3 (UniProt Q6UUV7),inactive: -0.017,inactive: 0.087,inactive: 0.033,–,inactive: -0.049,inactive: -0.093,inactive: 0.144,–,inactive: 0.035,inactive: 0.051,inactive: 0.094,–,inactive: -0.117,–,–,active: -0.543,–,–,–,–
COL6A1 (UniProt P12109),inactive: -0.05,inactive: 0.184,inactive: 0.045,inactive: 0.103,–,inactive: 0.191,inactive: -0.242,inactive: -0.066,inactive: -0.054,inactive: 0.021,–,inactive: 0.363,inactive: 0.039,inactive: 0.256,inactive: -0.218,inactive: -0.241,inactive: 0.097,inactive: 0.148,inactive: 0.241,inactive: 0.044
CSNK1G3 (UniProt Q9Y6M4),inactive: 0.104,inactive: -0.038,inactive: -0.005,inactive: 0,inactive: 0.184,inactive: -0.069,inactive: 0.037,inactive: -0.002,inactive: -0.09,inactive: 0.237,inactive: -0.024,inactive: 0.04,inactive: -0.069,inactive: 0.141,inactive: 0.121,inactive: 0.042,–,inactive: -0.079,inactive: 0.017,inactive: 0.117
COX7B (UniProt P24311),inactive: 0.048,–,inactive: 0.045,inactive: 0.094,inactive: -0.056,inactive: -0.148,inactive: 0.136,inactive: -0.013,inactive: -0.025,inactive: 0.024,inactive: 0.023,inactive: -0.035,inactive: 0.04,inactive: 0.015,active: 0.323,inactive: -0.188,inactive: -0.011,–,inactive: -0.052,–
CRKL (UniProt P46109),active: -1.25,inactive: -0.029,inactive: 0.014,inactive: 0.019,inactive: -0.003,inactive: -0.018,inactive: -0.009,inactive: 0.009,inactive: 0.01,inactive: -0.039,inactive: 0,inactive: 0,inactive: 0.012,inactive: 0,inactive: -0.016,inactive: -0.024,inactive: -0.012,–,inactive: 0.007,–
COMMD4 (UniProt Q9H0A8),inactive: 0.013,inactive: -0.004,–,inactive: 0.137,inactive: -0.07,inactive: 0.135,–,inactive: 0.158,inactive: -0.029,–,inactive: 0.02,inactive: -0.129,inactive: 0.03,inactive: 0.092,inactive: 0.016,inactive: 0.034,inactive: -0.157,inactive: 0.049,inactive: 0.032,inactive: -0.025
COMMD1 (UniProt Q8N668),inactive: 0.037,inactive: -0.064,inactive: -0.048,inactive: 0.056,inactive: 0.011,inactive: -0.038,inactive: 0.097,inactive: 0.122,inactive: 0.057,inactive: -0.041,inactive: -0.071,inactive: 0.157,inactive: 0.019,–,inactive: 0.295,inactive: 0.056,inactive: -0.029,–,inactive: 0.054,–
CPSF1 (UniProt Q10570),inactive: -0.017,inactive: 0,inactive: -0.123,inactive: -0.083,active: 0.453,inactive: -0.115,inactive: 0.014,inactive: 0.058,inactive: -0.024,inactive: -0.105,inactive: -0.038,inactive: 0.026,inactive: -0.104,inactive: 0.116,inactive: 0.165,inactive: -0.005,inactive: 0.053,–,inactive: 0.031,–
COX5B (UniProt P10606),inactive: -0.038,inactive: -0.096,inactive: 0.037,inactive: -0.008,inactive: -0.043,inactive: 0.037,inactive: -0.044,inactive: 0.065,inactive: 0.034,inactive: -0.02,inactive: 0.192,inactive: -0.043,inactive: -0.013,inactive: -0.037,active: 0.541,inactive: 0.013,inactive: 0.06,–,inactive: -0.047,–

# Part of the list above, showing only log2 fold change (Nexturastat A) and log2 fold change (epoxomicin).
Target,log2 fold change (Nexturastat A),log2 fold change (epoxomicin)
CRKL (UniProt P46109),inactive: -0.003,inactive: 0
COMMD4 (UniProt Q9H0A8),inactive: -0.07,inactive: 0.02
